Data as given in paper PMC9513230, “Inhibition of Plasmodium falciparum Hsp70-Hop partnership by 2-phenylthynesulfonamide” (Frontiers in Molecular Biosciences, 2022).
No constants are given. Whether binding was seen depends on the method and setting.

Chains of the proteins cited; added tags and fusions are not shown. Residues count along the entry.
UniProt P02769, residues 25-607: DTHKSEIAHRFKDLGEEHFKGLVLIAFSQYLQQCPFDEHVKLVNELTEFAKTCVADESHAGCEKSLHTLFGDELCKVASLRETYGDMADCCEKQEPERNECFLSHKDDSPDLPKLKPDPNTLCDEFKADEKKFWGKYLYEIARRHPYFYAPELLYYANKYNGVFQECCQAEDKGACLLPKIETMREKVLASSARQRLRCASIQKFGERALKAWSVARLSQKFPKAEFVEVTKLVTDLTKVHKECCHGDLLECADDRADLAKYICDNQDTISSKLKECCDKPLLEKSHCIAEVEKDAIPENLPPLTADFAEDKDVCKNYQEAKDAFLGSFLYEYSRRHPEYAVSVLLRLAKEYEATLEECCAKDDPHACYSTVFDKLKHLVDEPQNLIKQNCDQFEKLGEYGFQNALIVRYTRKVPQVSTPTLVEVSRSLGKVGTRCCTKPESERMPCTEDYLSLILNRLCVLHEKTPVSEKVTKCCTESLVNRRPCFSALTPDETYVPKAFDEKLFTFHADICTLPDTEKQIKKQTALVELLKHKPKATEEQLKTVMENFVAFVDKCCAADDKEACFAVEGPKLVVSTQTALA
UniProt Q8IB24: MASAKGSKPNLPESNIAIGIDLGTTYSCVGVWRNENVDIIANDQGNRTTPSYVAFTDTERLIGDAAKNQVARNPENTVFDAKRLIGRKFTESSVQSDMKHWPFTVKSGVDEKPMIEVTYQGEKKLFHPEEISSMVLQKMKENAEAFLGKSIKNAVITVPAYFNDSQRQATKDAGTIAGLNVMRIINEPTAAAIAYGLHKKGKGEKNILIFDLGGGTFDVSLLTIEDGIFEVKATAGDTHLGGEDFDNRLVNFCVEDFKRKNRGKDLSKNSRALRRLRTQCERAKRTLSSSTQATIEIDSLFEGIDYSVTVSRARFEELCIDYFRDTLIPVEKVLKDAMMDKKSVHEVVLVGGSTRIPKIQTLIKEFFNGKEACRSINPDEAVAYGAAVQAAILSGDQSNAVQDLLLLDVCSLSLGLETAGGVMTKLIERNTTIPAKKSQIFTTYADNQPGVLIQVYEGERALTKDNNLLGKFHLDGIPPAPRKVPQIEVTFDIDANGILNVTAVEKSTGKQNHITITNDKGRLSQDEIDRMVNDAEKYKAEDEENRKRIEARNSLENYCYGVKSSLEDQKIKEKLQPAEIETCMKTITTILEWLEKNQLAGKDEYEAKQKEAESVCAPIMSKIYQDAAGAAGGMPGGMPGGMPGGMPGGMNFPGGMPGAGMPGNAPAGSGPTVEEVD

How the values were obtained:
BSA = BSA (UniProt P02769); experiment: ELISA; both purified
[1] = molecular target: Plasmodium falciparum Hsp70-1 (Plasmodium falciparum) (UniProt Q8IB24); experiment: ELISA; PfHsp70-1 coated on the plate, PfHop as analyte; with 25 uM PES; both purified
[2] = molecular target: Plasmodium falciparum Hsp70-1 (Plasmodium falciparum) (UniProt Q8IB24); experiment: ELISA; PfHsp70-1 and PfHop, one coated on the plate, the other as analyte; with 25 uM ATP; both purified

B1: Plasmodium falciparum Hsp90-Hsp70 organizing protein (protein, UniProt Q8ILC1 1-564)
chain: MVNKEEAQRLKELGNKCFQEGKYEEAVKYFSDAITNDPLDHVLYSNLSGAFASLGRFYEALESANKCISIKKDWPKGYIRKGCAEHGLRQLSNAEKTYLEGLKIDPNNKSLQDALSKVRNENMLENAQLIAHLNNIIENDPQLKSYKEENSNYPHELLNTIKSINSNPMNIRIILSTCHPKISEGVEKFFGFKFTGEGNDAEERQRQQREEEERRKKKEEEERKKKEEEEMKKQNRTPEQIQGDEHKLKGNEFYKQKKFDEALKEYEEAIQINPNDIMYHYNKAAVHIEMKNYDKAVETCLYAIENRYNFKAEFIQVAKLYNRLAISYINMKKYDLAIEAYRKSLVEDNNRATRNALKELERRKEKEEKEAYIDPDKAEEHKNKGNEYFKNNDFPNAKKEYDEAIRRNPNDAKLYSNRAAALTKLIEYPSALEDVMKAIELDPTFVKAYSRKGNLHFFMKDYYKALQAYNKGLELDPNNKECLEGYQRCAFKIDEMSKSEKVDEEQFKKSMADPEIQQIISDPQFQIILQKLNENPNSISEYIKDPKIFNGLQKLIAAGILKVR
binding (BSA): no binding | binding [1]: no binding (condition: with 25 µM PES) | binding [2]: no binding (condition: with 25 µM ATP)
